Test results taken from patent US20190328784A1, “CHIMERIC ANTIGEN RECEPTORS (CARS) SPECIFIC FOR MUC1 AND METHODS FOR THEIR USE” (Poseida Therapeutics, Inc., priority 2016, published 2019).
Results are given in words; binding and its absence hold for the method and conditions named. Some entries that bind do so weakly or less than the wild type.

Sequences of proteins named here, by UniProt entry; tags and fusion partners are left off. Residues count along the entry.
UniProt P15941, residues 24-1255: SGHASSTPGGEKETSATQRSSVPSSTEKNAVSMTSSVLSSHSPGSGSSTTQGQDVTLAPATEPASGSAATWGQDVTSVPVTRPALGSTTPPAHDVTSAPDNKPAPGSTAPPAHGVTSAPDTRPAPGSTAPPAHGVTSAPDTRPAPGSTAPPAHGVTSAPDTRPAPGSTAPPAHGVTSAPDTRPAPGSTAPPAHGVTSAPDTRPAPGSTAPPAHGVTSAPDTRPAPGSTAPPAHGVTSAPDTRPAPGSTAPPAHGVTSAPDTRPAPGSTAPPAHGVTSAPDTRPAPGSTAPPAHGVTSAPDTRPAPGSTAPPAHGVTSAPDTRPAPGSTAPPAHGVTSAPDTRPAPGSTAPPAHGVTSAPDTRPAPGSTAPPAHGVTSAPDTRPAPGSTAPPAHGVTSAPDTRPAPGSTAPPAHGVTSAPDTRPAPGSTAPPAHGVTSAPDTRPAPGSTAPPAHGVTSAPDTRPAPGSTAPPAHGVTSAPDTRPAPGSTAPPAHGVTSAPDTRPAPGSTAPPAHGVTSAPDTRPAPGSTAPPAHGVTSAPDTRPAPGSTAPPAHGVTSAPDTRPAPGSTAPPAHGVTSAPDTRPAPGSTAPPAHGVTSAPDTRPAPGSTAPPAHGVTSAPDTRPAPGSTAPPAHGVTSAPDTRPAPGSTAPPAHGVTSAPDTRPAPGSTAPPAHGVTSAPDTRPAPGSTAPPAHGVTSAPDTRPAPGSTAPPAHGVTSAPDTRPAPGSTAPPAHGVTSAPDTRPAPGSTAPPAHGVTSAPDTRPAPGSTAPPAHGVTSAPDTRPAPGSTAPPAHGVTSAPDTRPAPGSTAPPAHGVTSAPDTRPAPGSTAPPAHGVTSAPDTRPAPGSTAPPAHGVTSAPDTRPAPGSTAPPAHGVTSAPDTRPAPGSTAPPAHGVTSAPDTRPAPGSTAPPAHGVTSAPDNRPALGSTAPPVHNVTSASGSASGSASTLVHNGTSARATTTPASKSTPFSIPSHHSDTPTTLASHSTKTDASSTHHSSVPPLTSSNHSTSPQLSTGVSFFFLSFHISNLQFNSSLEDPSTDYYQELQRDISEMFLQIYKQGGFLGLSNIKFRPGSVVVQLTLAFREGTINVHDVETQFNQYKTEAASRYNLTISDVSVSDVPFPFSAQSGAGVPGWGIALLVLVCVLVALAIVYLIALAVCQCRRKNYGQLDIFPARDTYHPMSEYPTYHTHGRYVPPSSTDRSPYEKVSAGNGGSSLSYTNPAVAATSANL

Target: full length MUC1 (Homo sapiens, UniProt P15941)
Assay: epitope test by CAR-T degranulation against unmodified and MUC1-transfected cells, FIG. 15

B1: F1C-HL CAR (MUC1-scFv chimeric antigen receptor) (scFv, not shown: a dimerising Fc or GST)
scFv: QITLKESGPGILQPSQTLSLTCSFSGFSLSTSGMGVSWIRQPSGKGLEWLSHIYWDDDKRYNPSLKSRLSISKDTSRNQVFLKITSVDTADTATYYCAPGVSSWFPYWGPGTLVTVSAGGGGSGGGGSGGGGSSIVMTQTPKFLPVSAGDRVTVTCKASQSVGNYVAWYQQKPGQSPKLLIYFASNRYSGVPDRFTGSGSGTDFTFTISSVQVEDLAVYFCQQHYIFPYTFGSGTKLEIK
  binding: binds
